In PubChem BioAssay AID2685 (National Center for Advancing Translational Sciences (NCATS), 2010):
This is one part of the list. These are further read-outs of the screen, such as a control signal, another cell line or another target. No call is given for them. The list favours compounds with an active or inconclusive main result. The note in brackets gives the kind of curve behind each potency; many fits are weak.

Test: qHTS Assay for Lipid Storage Modulators in Drosophila S3 Cells;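 for cell number change: cells counted by Cell Tracker Red CMTPX staining in the red channel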
Details: BODIPY lipid droplet fluorescence, 18-24 h; for cell number change: measured here: cell count max response, cells fed with added oleic acid
Procedure, shortened: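 Drosophila S3 cells loaded with oleic acid (400 uM, as added) and compounds at several concentrations; lipid droplets imaged by 488-nm laser-scanning cytometry, 500–530 nm intensity and object ratio to cell channel. Percent activity normalized to 20 uM Triacsin C.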

[1] = measured here: cell number channel AC50, cells fed with added oleic acid
[2] = measured here: lipid fluorescence (Fed channel) AC50, cells fed with added oleic acid

Structure (SMILES) | cell number change | AC50 [1] | AC50 [2]
CC(C)c1ccc(S(=O)(=O)N2CCN(C(=O)Cc3ccsc3)CC2)cc1 | -19.3% | 0.164 µM [falling, full curve, poor fit] | –
CC(C(=O)Nc1ccc(C#N)cc1)N(C)Cc1cccs1 (stereo unspecified) | -33.3% | 0.82 µM [falling, full curve, poor fit] | –
O=[N+]([O-])c1ccc(N2CCCCC2)nc1N1CCCCC1 | 19.3% | – | 14.6 µM [rising, partial curve, poor fit]
COc1cc(C(=O)NCc2nnc(SCC(=O)NCc3ccccc3)o2)cc(OC)c1OC | 6.13% | – | 0.164 µM [falling, full curve, poor fit]
Cc1cc(C)cc(NC(=O)CSc2nc(=O)n(CCCN3CCOCC3)c3c2CCCC3)c1 | 228% | 20.6 µM [rising, partial curve] | –
Cc1c(Cl)cccc1NC(=O)CCC(=O)N/N=C/c1ccco1 | 25.2% | 0.731 µM [rising, full curve, poor fit] | 29.1 µM [rising, single point]
O=S(=O)(Nc1cccc(CO)c1)c1cccs1 | -1.72% | – | 0.116 µM [falling, full curve, poor fit]
COc1ccc(NC(=O)CSc2ccccn2)cc1OC | 6.77% | 1.46 µM [rising, partial curve] | 23.1 µM [rising, partial curve]
O=S(=O)(c1ccc(Cl)cc1)N1CCN(Cc2ccc(O)c3ncccc23)CC1 | 17.5% | – | –
O=C(NNC(=O)C1COc2ccccc2O1)c1cccc([N+](=O)[O-])c1 (stereo unspecified) | 1.7% | – | 4.11 µM [falling, partial curve, poor fit]
CCOC(=O)Cc1cn2c(=O)cc(CSCC(=O)Nc3ccc(C)c(C)c3)nc2s1 | 73.8% | 29.1 µM [rising, single point] | 20.6 µM [rising, partial curve]
O=C(Cn1nnc(-c2cccc(C(F)(F)F)c2)n1)N1CCCCCC1 | -2.74% | – | 6.51 µM [falling, single point]
CCOC(=O)N1CCC(NC(=O)c2ccc(OC)c(CN3CC(=O)N4CCCC4C3=O)c2)CC1 (stereo unspecified) | -4.54% | 0.058 µM [rising, single point] | –
Cc1onc(-c2ccccc2Cl)c1C(=O)Nc1ccc(-n2nncc2-c2ccco2)cc1 | 72.2% | – | –
CC(C)CC(=O)Nc1cccc(-c2nc3ccccc3[nH]2)c1 | -24.1% | – | 29.1 µM [falling, single point]
O=C(/C=C/c1ccccc1)N1CCN(CCN2C(=O)c3cccc4cccc(c34)C2=O)CC1 | 14.1% | – | 5.8 µM [rising, full curve]
COc1cccc(Cn2cnc3c(NS(=O)(=O)c4cc(Cl)ccc4Cl)c(C)c(C)cc32)c1 | – | 0.092 µM [rising, full curve, poor fit] | 0.058 µM [rising, full curve, poor fit]
Cc1ccc(S(=O)(=O)CCC(=O)N(C)C2CCCCC2)cc1 | 13.4% | 0.651 µM [rising, full curve, poor fit] | 2.31 µM [rising, partial curve]
Cc1cc(=O)oc(C)c1C(=O)OC(C(=O)c1ccccc1)c1ccccc1 (stereo unspecified) | 30.6% | 29.1 µM [rising, single point] | –
CCCCCCn1c(N2CCC(C(N)=O)CC2)nc2c1c(=O)[nH]c(=O)n2C | -13.3% | – | 29.1 µM [rising, single point]

Structure (SMILES) | cell number change | AC50 [1] | AC50 [2]
Cc1ccccc1-n1c(SCC(=O)N2CCCC2)nnc1-c1ccccn1 | 4.31% | – | 23.1 µM [rising, single point]
Cc1nnc(NC(=O)CSc2nnc(-c3ccco3)n2C(C)C)s1 | 6.84% | – | 29.1 µM [falling, single point]
CC1CCCC(C)N1C(=O)/C=C/c1ccc(S(=O)(=O)N2CCOCC2)cc1 (stereo unspecified) | 28.5% | – | –
COc1ccc(/C=N\NC(=O)c2ccc(-c3ccccc3)cc2)c(OC)c1OC | 2.89% | – | 0.731 µM [falling, full curve, poor fit]
c1ccc(-c2ccccc2OCCN2CCCCC2)cc1 | -16.7% | 3.26 µM [falling, single point] | –
COc1ccc(OC)c(-c2csc(N(C)C(=O)c3ccco3)n2)c1 | 75.2% | 25.9 µM [rising, single point] | –
O=C(COC(=O)C1CC(=O)N(Cc2ccco2)C1)Nc1ccccc1[N+](=O)[O-] (stereo unspecified) | – | 4.61 µM [rising, single point] | 6.51 µM [falling, single point]
O=C(NOCc1ccccc1)c1ccc([N+](=O)[O-])cc1 | -34.1% | – | 1.84 µM [rising, partial curve]
O=C(OCC(=O)N1CCOCC1)C(c1ccccc1)c1ccccc1 | -77.5% | 29.1 µM [falling, single point] | 20.6 µM [falling, partial curve]
O=C(N/N=C/c1ccccn1)c1ccc(N/N=C/c2ccccn2)cc1 | -12.8% | 0.291 µM [rising, full curve] | –
O=C(c1cc(-c2ccccc2)nn1-c1ccccc1)N1CCN(S(=O)(=O)c2c(F)cccc2F)CC1 | -8.46% | – | 29.1 µM [rising, single point]
CCS(=O)(=O)N1CCCC(C(=O)NC2CCCCC2)C1 (stereo unspecified) | – | – | 2.06 µM [rising, partial curve, poor fit]
CCCc1ccc(S(=O)(=O)N/N=C(/C)c2ccc3c(c2)OCO3)cc1 | – | – | 29.1 µM [rising, single point]
O=C1CSC(c2cccc([N+](=O)[O-])c2)N1C1CC2CCC1C2 (stereo unspecified) | 28.8% | 0.461 µM [rising, full curve, poor fit] | –
S=C(NC12CC3CC(CC(C3)C1)C2)N1CCOCC1 | 14.4% | – | 6.51 µM [falling, single point]
CCOCCCNC(=O)N1CCOCC1 | -36.6% | 0.184 µM [falling, full curve, poor fit] | –
CC(NC(=O)CCl)c1ccc(Cl)c(Cl)c1 (stereo unspecified) | – | – | 18.4 µM [falling, partial curve]
Cc1cc(Nc2ccccc2)nc(NCc2ccccc2)n1 | – | – | 2.06 µM [falling, full curve, poor fit]
Cc1cc2ccccc2c(=O)n1CC(=O)NCC1COc2ccccc2O1 (stereo unspecified) | 39.3% | 8.2 µM [rising, partial curve] | 14.6 µM [rising, partial curve]
COCC(=O)Nc1cc(Cl)c(OC)cc1OC | -1.08% | – | 29.1 µM [rising, single point]

Structure (SMILES) | cell number change | AC50 [1] | AC50 [2]
CCOC(=O)CN(C(=O)CSc1nnc(-c2ccc(OC)c(OC)c2)o1)c1ccccc1 | -0.209% | – | –
Nc1nc(-c2ccc(C(=O)O)cc2)cs1 | -29.2% | 0.0058 µM [falling, full curve] | –
CCCCSc1cnn(-c2ccccc2)c(=O)c1SCCCC | -32.4% | 29.1 µM [falling, single point] | 29.1 µM [falling, single point]
COc1ccc(-n2nc(C(=O)NCC(=O)N3CCCC3)c3ccccc3c2=O)cc1Cl | 24.8% | – | 29.1 µM [rising, single point]
CC(=O)Oc1ccc(C(=O)[C@H]2[C@H]3C(=O)N(c4ccc(C)cc4)C(=O)[C@H]3[C@@H]3C=CC=NN32)cc1 | -13% | 2.06 µM [rising, partial curve] | –
O=C(c1ccccc1Cl)N1CCN(Cc2ccc3c(c2)OCO3)CC1 | -13.9% | – | 16.4 µM [rising, single point]
C/C(=N\Nc1ccc([N+](=O)[O-])cc1[N+](=O)[O-])c1ccc(-n2nncc2C(C)(C)C)cc1 | -25.8% | – | 18.4 µM [falling, single point]
COc1cccc(CNC(=O)[C@H](C)NC(=O)C2CCN(S(=O)(=O)c3ccccc3)CC2)c1 | 29.6% | – | 6.51 µM [falling, single point]
CCN1C(=O)CCCc2ccccc21 | 10.9% | 2.06 µM [falling, partial curve] | 1.46 µM [falling, partial curve]
O=C(COc1ccc([N+](=O)[O-])cc1Cl)N1CCOCC1 | 8.11% | 0.231 µM [rising, full curve, poor fit] | 3.66 µM [rising, single point]
COc1ccc(/C=C2\N=C(c3ccccc3Cl)NC2=O)cc1 | 14.5% | – | –
COc1ccccc1NC(=O)CN1CCN(C2c3ccccc3-c3ccccc32)CC1 | – | – | 18.4 µM [falling, single point]
Cc1cccc(N2CCN(Cc3ccoc3)CC2)c1C | -10.3% | – | –
CCOC(=O)[C@@H]1[C@H]2COc3ccc(Br)cc3[C@@H]2N2C(=O)N(c3ccc(C(F)(F)F)cc3)C(=O)[C@@]12C | 6.59% | – | –
COc1ccccc1CNC(=O)CN1C(=O)NC2(CCCC2)C1=O | -12% | – | 14.6 µM [falling, partial curve]
COc1ccc(NC(=O)COC(=O)CCCc2c[nH]c3ccccc23)cc1OC | 59.3% | – | –
O=C(CN1CCc2cc3c(cc2C1)OCCCO3)Nc1ccccc1 | -33.9% | 29.1 µM [falling, single point] | 20.6 µM [falling, partial curve]
CC(=O)c1ccc(N2CCN(C(=O)c3ccc(NC4=NC5CS(=O)(=O)CC5S4)cc3)CC2)cc1 (stereo unspecified) | 2.88% | – | 0.00517 µM [rising, full curve, poor fit]
O=C(N[C@@H](Cc1ccccc1)C(=O)CCl)OCc1ccccc1 | -55.1% | 29.1 µM [falling, single point] | 29.1 µM [falling, single point]

Reformatted tab-delimited: entries from further up.
Structure (SMILES)	cell number change	AC50 [1]	AC50 [2]
CCOC(=O)N1CCC(NC(=O)c2ccc(OC)c(CN3CC(=O)N4CCCC4C3=O)c2)CC1 (stereo unspecified)	-4.54%	0.058 µM [rising, single point]	–
Cc1onc(-c2ccccc2Cl)c1C(=O)Nc1ccc(-n2nncc2-c2ccco2)cc1	72.2%	–	–
CC(C)CC(=O)Nc1cccc(-c2nc3ccccc3[nH]2)c1	-24.1%	–	29.1 µM [falling, single point]
O=C(/C=C/c1ccccc1)N1CCN(CCN2C(=O)c3cccc4cccc(c34)C2=O)CC1	14.1%	–	5.8 µM [rising, full curve]
COc1cccc(Cn2cnc3c(NS(=O)(=O)c4cc(Cl)ccc4Cl)c(C)c(C)cc32)c1	–	0.092 µM [rising, full curve, poor fit]	0.058 µM [rising, full curve, poor fit]
Cc1ccc(S(=O)(=O)CCC(=O)N(C)C2CCCCC2)cc1	13.4%	0.651 µM [rising, full curve, poor fit]	2.31 µM [rising, partial curve]
Cc1cc(=O)oc(C)c1C(=O)OC(C(=O)c1ccccc1)c1ccccc1 (stereo unspecified)	30.6%	29.1 µM [rising, single point]	–
CCCCCCn1c(N2CCC(C(N)=O)CC2)nc2c1c(=O)[nH]c(=O)n2C	-13.3%	–	29.1 µM [rising, single point]
Cc1ccccc1-n1c(SCC(=O)N2CCCC2)nnc1-c1ccccn1	4.31%	–	23.1 µM [rising, single point]
Cc1nnc(NC(=O)CSc2nnc(-c3ccco3)n2C(C)C)s1	6.84%	–	29.1 µM [falling, single point]
CC1CCCC(C)N1C(=O)/C=C/c1ccc(S(=O)(=O)N2CCOCC2)cc1 (stereo unspecified)	28.5%	–	–
COc1ccc(/C=N\NC(=O)c2ccc(-c3ccccc3)cc2)c(OC)c1OC	2.89%	–	0.731 µM [falling, full curve, poor fit]
c1ccc(-c2ccccc2OCCN2CCCCC2)cc1	-16.7%	3.26 µM [falling, single point]	–
COc1ccc(OC)c(-c2csc(N(C)C(=O)c3ccco3)n2)c1	75.2%	25.9 µM [rising, single point]	–
O=C(COC(=O)C1CC(=O)N(Cc2ccco2)C1)Nc1ccccc1[N+](=O)[O-] (stereo unspecified)	–	4.61 µM [rising, single point]	6.51 µM [falling, single point]
O=C(NOCc1ccccc1)c1ccc([N+](=O)[O-])cc1	-34.1%	–	1.84 µM [rising, partial curve]
O=C(OCC(=O)N1CCOCC1)C(c1ccccc1)c1ccccc1	-77.5%	29.1 µM [falling, single point]	20.6 µM [falling, partial curve]
O=C(N/N=C/c1ccccn1)c1ccc(N/N=C/c2ccccn2)cc1	-12.8%	0.291 µM [rising, full curve]	–
